From article PMC7862700
The list shows a part of the results. Construct or isoform of the protein are uncertain.

Molecular target: T1, ETS1 (UniProt P14921)
T1 sequence: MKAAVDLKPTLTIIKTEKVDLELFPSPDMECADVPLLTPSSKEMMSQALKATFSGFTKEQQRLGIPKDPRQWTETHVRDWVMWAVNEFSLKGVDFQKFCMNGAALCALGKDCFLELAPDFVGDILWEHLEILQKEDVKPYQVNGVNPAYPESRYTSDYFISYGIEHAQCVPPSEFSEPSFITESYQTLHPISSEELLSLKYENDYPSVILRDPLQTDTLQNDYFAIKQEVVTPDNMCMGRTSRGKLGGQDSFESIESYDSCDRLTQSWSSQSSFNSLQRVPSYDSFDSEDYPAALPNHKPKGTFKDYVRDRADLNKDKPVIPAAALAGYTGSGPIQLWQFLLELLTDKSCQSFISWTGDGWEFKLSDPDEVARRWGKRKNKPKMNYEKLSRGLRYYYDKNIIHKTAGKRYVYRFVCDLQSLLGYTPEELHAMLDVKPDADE
Test: DAPPL (digital affinity profiling via proximity ligation, sequencing)
Settings: 10 mM Tris-HCl pH 7.5, 50 mM NaCl, 1 mM DTT, 4% glycerol, room temperature, 30 min; GST-TFs on glutathione beads, 16-mer random dsDNA library, 0.1% …; high values mean tight binding; double strand, one strand shown; scale: fold enrichment (6-mer frequency, TF over GST control)

Row | Sequence | binding signal
1 | GTTTCT | 1.34
2 | CTATCG | 1.09
3 | GGTTCC | 1.32
4 | CGCGCT | 1.25
5 | CTTTCG | 1.24
6 | ATACTT | 1.65
7 | GTCCCG | 1.17
8 | TGGAAT | 1.25
9 | ATCTAT | 1.24
10 | TGTATT | 1.44
11 | CCCCAC | 1.24
12 | CTGACA | 1.19
13 | AAGTGC | 1.16
14 | TCGTCT | 1.29
15 | AACGAT | 1.29
16 | TCCTAA | 1.49
17 | TCCGGG | 1.36
18 | CGTTCT | 1.48
19 | ACTTAG | 1.13
20 | CAATCT | 1.21
21 | CATATC | 1.33
22 | GGGTTC | 0.961

An excerpt of these results, with tabs:
Row	Sequence	binding signal
10	TGTATT	1.44
11	CCCCAC	1.24
12	CTGACA	1.19
13	AAGTGC	1.16
14	TCGTCT	1.29
15	AACGAT	1.29

The list continues.

Row | Sequence | binding signal
23 | ACCTAT | 1.26
24 | ATGACC | 1.53
25 | ACGTAC | 1.21
26 | GAACAA | 1.25
27 | TGGCCC | 1.13
28 | AGGAAG | 1.27
29 | CCTGCT | 1.55
30 | CCCTCT | 1.39
31 | TACAGG | 1.08
32 | AACGCA | 1.05
33 | TTCGCA | 1.26
34 | TCTTAT | 1.35
35 | CTACGC | 1.63
36 | TCTCAG | 1.36
37 | AACAAC | 1.34
38 | TATAAT | 1.28
39 | GACATT | 1.15
40 | GTCTCC | 1.48
41 | ATCCAT | 1.14
42 | TAATCA | 1.15
43 | CTACCT | 1.45
44 | TGCTTA | 1.11

Row | Sequence | binding signal
45 | GTTCTC | 1.37
46 | AACAAG | 1.14
47 | TACAAC | 1.08
48 | CAAACC | 1.17
49 | GTAATC | 1.13
50 | TATTAC | 1.23
51 | CAACGC | 1.05
52 | ACTGTT | 1.14
53 | CTACAC | 1.43
54 | ATTCAT | 1.23
55 | TACCTA | 1.22
56 | GTAGCA | 0.969
57 | TAGTAG | 0.991
58 | AAAACC | 1.15
59 | CCGTCA | 1.1
60 | TTTACC | 1.28
61 | ACGTAA | 1.08
62 | AGCCAC | 1.04
63 | GATATT | 1.07
64 | AACTCA | 1.25
65 | AATTTG | 1.33
